Hit rate of the full screen: of about 340,000 compounds, about 170 (0.05%) were called active. The shares of active, inactive and inconclusive entries below differ from those in the screen. Calls come from the whole dose curve; as a rule, active = well fitted inhibition curve with a large enough effect in the signal ratio, with a control signal flat (not every such curve was filed as active); inconclusive = small, poorly fitted or top-dose-only effect, or effect the other way, or a change in a side signal; inactive = flat fitted curve, though single readings scatter; the % refers to the signal ratio. Where the call is inconclusive, the potency comes from a doubtful curve fit.
assay: qHTS Assay to Find Inhibitors of Chronic Active B-Cell Receptor Signaling; conditions: ABC-DLBCL IkBa-CBG/CBR reporter, luminescence ratio (green luciferase fused to IkBa over red control in TMD8 lymphoma cells), 4 h; activity change, negative = inhibition: at 46.1 µM (top of the series);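 for activity change, negative = inhibition: plate controls were basal doxycycline-induced cells for no effect and cells given 10 µM MG132 for full effect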
Summary of the method: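 TMD8 human ABC-DLBCL cells with doxycycline-inducible IκBα–green luciferase fusion and unfused red luciferase, in 0.5% FBS medium; compounds up to 46 uM, 4 h at 37C. Green/red luminescence ratio, filter-overlap corrected, fitted to concentration-response curves.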
Potency is the fitted concentration of half-maximal effect.

| SMILES | Potency | activity change, negative = inhibition |
| --- | --- | --- |
| C/C(=N\NC(=O)c1ccc2c(c1)OCO2)c1ccc(NC(=O)CCCC(=O)O)cc1 | inconclusive: 12.6 µM [falling, partial curve] |  |
| COc1ccc(NC(=O)/C=C/c2cccc(F)c2)cn1 |  | inactive |
| Cc1ccccc1C(=O)Nc1nc2n(n1)C(c1ccccc1)CC(=O)N2 (centres undefined) |  | inconclusive: 3.39% |
| Cc1ccc(N2N=C(C(=O)O)CCC2=O)cc1Cl |  | inconclusive: 0.258% |
| COc1cccc(CNC(=O)CCC2CCCN(c3cc(C)nc(N)n3)C2)c1 (centres undefined) | inconclusive: 6.31 µM [falling, partial curve, poor fit] |  |
| O=C(Nc1ccc(Cl)cc1)c1cccc(N2C(=O)C3C4CCC(C4)C3C2=O)c1 (centres undefined) |  | inconclusive: -3.63% |
| O=C(Nc1ccc(Cl)cn1)c1cccc(OCc2ccccc2)c1 | inconclusive: 14.1 µM [falling, single point] |  |
| Cc1nc(C)c(C(=O)N(c2ccc(C)c(C)c2)C(C(=O)NCc2ccco2)c2ccccc2)s1 (centres undefined) |  | inconclusive: -1.59% |
| O=C1c2ccccc2C(=O)C12OC2c1ccc(Cl)cc1Cl (centres undefined) |  | inconclusive: -4.65% |
| Cc1ccc(/C=C/c2ccc(=O)n(Cc3ccccc3Cl)n2)cc1 |  | inconclusive: -19.2% |
| COc1ccc(-c2c(C)n([O-])c(C)c(C)[n+]2=O)cc1OC |  | inactive |
| O=C(Nc1c(C(=O)N2CCOCC2)oc2ccccc12)c1cccc([N+](=O)[O-])c1 |  | inconclusive: 13.7% |
| C=C(C)C(=O)Nc1cccc(C2=NOC3(C2)C[C@@H](C(N)=O)N(C(=O)c2ccc(OC)cc2)C3)c1 (some centres undefined) |  | inactive |
| Cc1ccccc1-c1nc(C#N)c(N2CCC(C)CC2)o1 |  | inconclusive: -0.267% |
| Cc1cc2c3c(c1)C(C)CC(C)(C)N3C(=O)C2=O (centres undefined) | inconclusive: 25.1 µM [falling, single point] |  |
| COc1ccc(CNC(=O)CN(C(=O)c2snc(C(N)=O)c2N)c2ccccc2F)cc1 | inconclusive: 7.08 µM [falling, partial curve, poor fit] |  |
| Cc1cc2ncn(CCOc3ccccc3)c2cc1C |  | inconclusive: -26.7% |
| CCn1c(=O)cc(OCC(=O)Nc2ccc(OC)c(OC)c2)c2ccccc21 | inconclusive: 3.16 µM [falling, partial curve] |  |
| Fc1ccc(Cn2c(SCc3ccc(F)c(C(F)(F)F)c3)nnc2C(F)(F)F)cc1 | inconclusive: 2.82 µM [rising, partial curve, poor fit] |  |
| O=C(Nc1nnc(-c2ccc(F)cc2)o1)c1cc(Cl)sc1Cl | inconclusive: 8.2 µM [falling, partial curve] |  |
| COCCCNC(=S)NNC(=S)Nc1ccc(F)cc1F | inconclusive: 16.4 µM [falling, partial curve, poor fit] |  |
| COc1ccc(/C=C2\CCc3ccccc3C2=O)cc1O | inconclusive: 35.5 µM [cytotoxic, single point] |  |
| COC(=O)c1sc(NC(=O)c2ccc(C)o2)nc1C | inconclusive: 18.4 µM [falling, partial curve, poor fit] |  |
| COc1ccc(NS(=O)(=O)c2c(F)cccc2F)cc1S(=O)(=O)N1CCOCC1 |  | inconclusive: 0.549% |
| Clc1ccc2nc(CSc3ccccc3)cn2c1 | inconclusive: 20 µM [falling, single point] |  |

Looked up above.
Cc1cc2c3c(c1)C(C)CC(C)(C)N3C(=O)C2=O (centres undefined) – Potency: inconclusive: 25.1 µM [falling, single point]
COc1cccc(CNC(=O)CCC2CCCN(c3cc(C)nc(N)n3)C2)c1 (centres undefined) – Potency: inconclusive: 6.31 µM [falling, partial curve, poor fit]
Cc1ccccc1C(=O)Nc1nc2n(n1)C(c1ccccc1)CC(=O)N2 (centres undefined) – activity change, negative = inhibition: inconclusive: 3.39%
O=C(Nc1ccc(Cl)cn1)c1cccc(OCc2ccccc2)c1 – Potency: inconclusive: 14.1 µM [falling, single point]

Continuation:

| SMILES | Potency | activity change, negative = inhibition |
| --- | --- | --- |
| O=C(COC(=O)c1cccc(O)c1)c1ccccc1 | inconclusive: 23.1 µM [falling, single point] |  |
| FC(F)Oc1cccc(NC(=S)N2CCN(c3ccccn3)CC2)c1 |  | inactive |
| O=C(CSc1nc2ccccc2c(=O)[nH]1)c1ccc(O)c(O)c1 |  | inconclusive: 11.1% |
| c1ccc2nc(-c3nc4ccccc4[nH]3)ccc2c1 | inconclusive: 4.11 µM [falling, partial curve] |  |
| CC(=C1C(=O)c2ccccc2C1=O)N1CCN(C/C=C/c2ccccc2)CC1 | inconclusive: 3.66 µM [falling, single point] |  |
| COc1ccccc1C=NNC(=O)c1ccccc1OCCOc1ccccc1 | inconclusive: 1.64 µM [falling, partial curve] |  |
| CN=C1SC(CC(=O)Nc2cccc(C(F)(F)F)c2)C(=O)N1C (centres undefined) |  | inconclusive: 9.96% |
| CCOC(=O)c1c2ccccc2[n+]([O-])n1CCO |  | inconclusive: -20% |
| Cc1cc(-c2n[nH]c(=S)n2/N=C/C(Br)=C/c2ccccc2)n[nH]1 |  | inconclusive: 18.3% |
| Cc1c(N=N/C(C(=O)Nc2ccccc2)=C(/O)c2ccccc2)c(=O)n(-c2ccccc2)n1C |  | inconclusive: -11.1% |
| CCOc1cc(-c2nc3ccccc3s2)ccc1O |  | inactive |
| c1ccc(-c2nc(-c3ccco3)n3ccccc23)cc1 |  | inconclusive: -3.01% |
| Cc1ccc(NC(=O)CSC(C)C(=O)NCCc2ccccn2)cc1 (centres undefined) |  | inconclusive: 2.41% |
| COc1cccc(N2CC(NC(=O)C(c3ccccc3)c3ccccc3)CC2=O)c1 (centres undefined) |  | inactive |
| COC(=O)C1=CN(Cc2ccc(OC)cc2)C=C(C(=O)OC)C1c1cccs1 |  | inconclusive: -15.3% |
| Cc1c(C(=O)Nc2cccc(-c3nnc4n3CCCCC4)c2)oc2ccccc12 | inconclusive: 9.2 µM [falling, partial curve, poor fit] |  |
| O=C(O)c1cc2cc(Cl)cc(Cl)c2oc1=O |  | inconclusive: -1.13% |
| COCCC(=O)N1CCc2ccc(NC(=O)c3ccc(C(F)(F)F)cc3)cc2C1 |  | inconclusive: 3.11% |
| C/C(=N\Nc1ccc(S(N)(=O)=O)cc1[N+](=O)[O-])c1ccco1 |  | inconclusive: 7.02% |
| CCOC(=O)[C@H]1[C@H]2COc3cc(OC)ccc3[C@@H]2N2C(=O)c3c(C)cc(C)cc3NC(=O)[C@@]12C |  | inactive |
| O=C(CSc1nnnn1-c1ccccc1)Nc1nsc(-c2ccc(Cl)cc2)n1 | inconclusive: 4.11 µM [falling, partial curve, poor fit] |  |
| Oc1c(Br)cc(Br)cc1CNc1nccs1 |  | inconclusive: -0.633% |
| CC1(C)Oc2ccccc2OC1(O)c1ccc2ccccc2n1 (centres undefined) |  | inconclusive: 3.48% |
| O=C(NC1CCCc2c1cnn2-c1ccc(F)cc1F)c1csnn1 (centres undefined) |  | inactive |
